Results on 78 substances are retold here after the supplement of paper PMC5949888.

Most values lie at the floor of the assay. Slopes are relative: functional sequences can read slightly below zero.

This data set relates to Saccharomyces cerevisiae PS128 hsf1 delta, HSF1(1-493) fusion. Description: growth estimate (transactivation domain function in HSF1 fusion, heat-shock survival) (a.u. (slope of normalised read count over time)); higher = stronger growth at 37°C, i.e. more transactivation activity. The note with it: library: random library.
For RLMGFLIGDNVLSSPSYRQR, the growth estimate is below -0.25.

For the substance KRYPSGA, the growth estimate is below -0.25.

Consider SAWWGPANIGKA, for which the growth estimate is -0.243.

Take IKRGHTVIITSLLSAKEICS: the growth estimate is below -0.25.

Consider DRTGWR, for which the growth estimate is below -0.25.

LCPTGQQYIFNPHY: the growth estimate was below -0.25.

Take TCPAQTGRVGARRGTVIKLA: the growth estimate was below -0.25.

In the case of GDEW, the growth estimate was below -0.25.

Turning to MGSATIGRLRGFS, the growth estimate is below -0.25.

NCACPVLG: the growth estimate is below -0.25.

For the substance TTC, the growth estimate was below -0.25.

On to GFDEKN, for which the growth estimate is below -0.25.

VRISEAPFAIGWPKIGRASL: the growth estimate is below -0.25.

For SYIVSTGHKCASNSFTADEH, the growth estimate is below -0.25.

As for RRGRVINESVHC, the growth estimate is below -0.25.

Take WYRCHARLRISVCDLYKMCC: the growth estimate was -0.0195.

For GWFGV, the growth estimate is below -0.25.

Regarding TWGCSITLTEWILF, the growth estimate was below -0.25.

With ATHRVRRRGTYGTTRTRWDT, the growth estimate was below -0.25.

Take GYV: the growth estimate was below -0.25.

For QSWPYVGNTVGTVLIVMGGP, the growth estimate is below -0.25.

For the substance YGRVITWQA, the growth estimate is below -0.25.

In the case of KFRQYTGSAGQRVSKLQCAG, the growth estimate was below -0.25.

Consider TGAQDDPRYPPISPAVEAHM, for which the growth estimate is below -0.25.

TIRPE: the growth estimate is below -0.25.

Regarding LTTARSDPEALA, the growth estimate was below -0.25.

Regarding APTGLLDRRAIR, the growth estimate is below -0.25.

With LYSTDEGIYDVSKGTTTGAA, the growth estimate is below -0.25.

Turning to VCMRNHVVLGARRSKVA, the growth estimate is below -0.25.

SGTKPNGFGARYLV: the growth estimate was below -0.25.

LPRNSVEVTPV: the growth estimate was below -0.25.

Regarding CLSSDGYGDRVPLHGDIKVL, the growth estimate was below -0.25.

In the case of NVFADSFRET, the growth estimate was below -0.25.

Take DTHHRSGKDQSLKGVLDQRL: the growth estimate is below -0.25.

Consider ALFVSA, for which the growth estimate was below -0.25.

For the substance GQTTALVAYSRPCSDSGFVD, the growth estimate is below -0.25.

As for EHPGASWVLALRVSRRRWLN, the growth estimate is below -0.25.

GQVASCSPGYRASSLRSVST: the growth estimate was below -0.25.

Regarding GLIVGYGAEVYSSTLVANGA, the growth estimate is below -0.25.

Regarding WTAGVNEMGTCYQLPSRILS, the growth estimate is below -0.25.

Consider KSLQSTP, for which the growth estimate is below -0.25.

Take CIETSGGVGVMDCRNEDYGG: the growth estimate was below -0.25.

With TVRPSY, the growth estimate is -0.246.

With IPLNSINTVQLKKCGHVGAK, the growth estimate is below -0.25.

For GARVGIWGRW, the growth estimate is below -0.25.

Turning to SSHQEL, the growth estimate was below -0.25.

Take GTRTGVEAGIVSLHCTNSGV: the growth estimate was below -0.25.

Take SRIHQSDC: the growth estimate was below -0.25.

For the substance SVQSALREMRRLIHINPVND, the growth estimate is 0.161.

For RRNFGVRKETEWVPGEPIKV, the growth estimate was -0.229.

As for HPRIDFEHRDIPRLRRNPRL, the growth estimate is below -0.25.

IYHREERTFESQARRSKFNS: the growth estimate is -0.169.

Turning to NSN, the growth estimate was below -0.25.

In the case of PGPHCRNQGFPKSLR, the growth estimate is below -0.25.

In the case of IIQIEKSARLCGAIGRPVRR, the growth estimate was below -0.25.

SGNRDLLDICGQPLSKKLSG: the growth estimate is below -0.25.

Consider YRPYAARSIYAGMGTVMGCT, for which the growth estimate was below -0.25.

On to EVAVYSTRLSFAEIREPPRA, for which the growth estimate was below -0.25.

Turning to VRRER, the growth estimate is below -0.25.

Take CRNLVELS: the growth estimate is below -0.25.

In the case of SFSYLRRGCAESDLCCQARP, the growth estimate was below -0.25.

VYLSGNTR: the growth estimate was below -0.25.

Regarding MCSVNSSWSAIRKA, the growth estimate was below -0.25.

RLQSQADVAGIAGNHILD: the growth estimate is below -0.25.

For GSVHEWRSELGGIAQDNIVF, the growth estimate is below -0.25.

As for IRGRCTRWRIMV, the growth estimate is -0.246.

As to HQGIARRRSNIPASNASDKS, the growth estimate was below -0.25.

Consider LVPKGGR, for which the growth estimate was below -0.25.

On to RALS, for which the growth estimate is below -0.25.

For VQR, the growth estimate was below -0.25.

For IQGQRLVIE, the growth estimate was below -0.25.

In the case of VKLVATQCYL, the growth estimate is below -0.25.

In the case of ALEQVRQ, the growth estimate was below -0.25.

LSRRGNSLVTTSPWRFFLHV: the growth estimate is below -0.25.

Take RGERVA: the growth estimate was below -0.25.

LDDAFSAYRSRGPG: the growth estimate was below -0.25.

LPRACARARTARASQTEGIQ: the growth estimate is below -0.25.

With TALRGDSNHRKYRLF, the growth estimate was below -0.25.
